# Data source: PubChem BioAssay AID1259254 (NCATS, 2017)
# Purpose: 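Finding genes that stop cells copying their DNA twice in one cycle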 (primary screen)
# Cell system: human HCT116 colorectal cancer cells
# Reagent: single siRNA against human genes
# Timing: 3 days
# Detection: 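Imaged Hoechst DNA stain sorts each cell into a cycle phase by DNA amount; per plate, G2 fraction set to 0% for non-targeting and 100% for GMNN siRNA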
# Reading the numbers: G2 robust z-score and G2 cells, % of GMNN control: higher = more G2 cells, more excess DNA replication
# Hit rule: 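An siRNA counts as active if its G2 robust z-score lies at least 5 MADs above the screen median; here such calls match roughly 38% of GMNN control or more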
# The whole screen tested about 59,000 reagents; shown is a random part of them. About 1,550 of all reagents (2.6%) were called active. 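G2 share is only a proxy for re-replication; each gene was hit by three separate siRNAs, and active genes were retested.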 The numbers tell different reagents against one gene apart. Not all columns of the deposit are shown. No sequences are given here. Not given: the amount of reagent.
target gene,reagent,G2 robust z-score,"G2 cells, % of GMNN control",Outcome
FTO (FTO alpha-ketoglutarate dependent dioxygenase),1,-0.232,1.33,inactive
FTO (FTO alpha-ketoglutarate dependent dioxygenase),2,0.359,5.5,inactive
FTO (FTO alpha-ketoglutarate dependent dioxygenase),3,2.56,21,inactive
"TLE2 (TLE family member 2, transcriptional corepressor)",1,10.3,75.3,active
"TLE2 (TLE family member 2, transcriptional corepressor)",2,3.66,28.7,inactive
"TLE2 (TLE family member 2, transcriptional corepressor)",3,0.0598,3.39,inactive
SLC61A1,1,2.3,19.1,inactive
SLC61A1,2,0.763,8.34,inactive
SLC61A1,3,-0.00377,2.94,inactive
GFI1B (growth factor independent 1B transcriptional repressor),1,-0.98,-3.93,inactive
GFI1B (growth factor independent 1B transcriptional repressor),2,-0.252,1.2,inactive
GFI1B (growth factor independent 1B transcriptional repressor),3,-0.12,2.12,inactive
LYPD4 (LY6/PLAUR domain containing 4),1,-0.184,1.68,inactive
LYPD4 (LY6/PLAUR domain containing 4),2,3.19,25.4,inactive
LYPD4 (LY6/PLAUR domain containing 4),3,-0.437,-0.105,inactive
CPLANE2 (ciliogenesis and planar polarity effector complex subunit 2),1,1.31,12.1,inactive
CPLANE2 (ciliogenesis and planar polarity effector complex subunit 2),2,2.18,18.3,inactive
CPLANE2 (ciliogenesis and planar polarity effector complex subunit 2),3,-0.414,0.0517,inactive
S1PR5 (sphingosine-1-phosphate receptor 5),1,-0.0299,2.76,inactive
S1PR5 (sphingosine-1-phosphate receptor 5),2,-0.724,-2.13,inactive
S1PR5 (sphingosine-1-phosphate receptor 5),3,-0.218,1.43,inactive
TUBG1 (tubulin gamma 1),1,0.0806,3.53,inactive
TUBG1 (tubulin gamma 1),2,2.08,17.6,inactive
TUBG1 (tubulin gamma 1),3,5.42,41.1,active
CUL5 (cullin 5),1,1.76,15.4,inactive
CUL5 (cullin 5),2,3.81,29.8,inactive
CUL5 (cullin 5),3,-0.404,0.122,inactive
SETX (senataxin),1,-0.199,1.57,inactive
SETX (senataxin),2,0.0929,3.62,inactive
SETX (senataxin),3,-0.144,1.95,inactive
CAPZB (capping actin protein of muscle Z-line subunit beta),1,4,31.1,inactive
CAPZB (capping actin protein of muscle Z-line subunit beta),2,-1.16,-5.19,inactive
CAPZB (capping actin protein of muscle Z-line subunit beta),3,1.47,13.3,inactive
TOMM34 (translocase of outer mitochondrial membrane 34),1,-1.09,-4.67,inactive
TOMM34 (translocase of outer mitochondrial membrane 34),2,5.03,38.4,active
TOMM34 (translocase of outer mitochondrial membrane 34),3,-0.763,-2.4,inactive
ZNF723 (zinc finger protein 723),1,3.81,29.8,inactive
ZNF723 (zinc finger protein 723),2,0.0177,3.09,inactive
ZNF723 (zinc finger protein 723),3,0.596,7.16,inactive
UBE2V1 (ubiquitin conjugating enzyme E2 V1),1,2.35,19.5,inactive
UBE2V1 (ubiquitin conjugating enzyme E2 V1),2,0.439,6.06,inactive
UBE2V1 (ubiquitin conjugating enzyme E2 V1),3,4.43,34.1,inactive
EPHA10 (EPH receptor A10),1,-0.532,-0.777,inactive
EPHA10 (EPH receptor A10),2,-0.524,-0.722,inactive
EPHA10 (EPH receptor A10),3,1.35,12.4,inactive
GJC3 (gap junction protein gamma 3),1,-0.45,-0.201,inactive
GJC3 (gap junction protein gamma 3),2,-0.565,-1.01,inactive
GJC3 (gap junction protein gamma 3),3,5.98,45,active

4 entries already listed, arranged by “G2 robust z-score”, low to high:
target gene,reagent,G2 robust z-score,"G2 cells, % of GMNN control",Outcome
S1PR5 (sphingosine-1-phosphate receptor 5),2,-0.724,-2.13,inactive
S1PR5 (sphingosine-1-phosphate receptor 5),3,-0.218,1.43,inactive
S1PR5 (sphingosine-1-phosphate receptor 5),1,-0.0299,2.76,inactive
TUBG1 (tubulin gamma 1),1,0.0806,3.53,inactive
